Test results from patent US20100041694A1, “AGRICULTURAL COMPOSITION FOR CONTROLLING OR PREVENTING PLANT DISEASES CAUSED BY PLANT PATHOGENIC MICROBES” (Sumitomo Chemical Company, Limited, priority 2007, published 2010).
Some results were stated once for a whole list of compounds, not compound by compound.

Experiments:
Assay type in all cases: in vivo
Botrytis cinerea = test: Preventing infection by cucumber gray mold, foliage application; conditions: cucumber (Sagami-Hanjiro), flowable formulation 500 ppm foliage application, then inoculation; 12° C. high humidity 5 days
Sclerotinia sclerotiorum [1] = test: Preventing infection by cucumber Sclerotinia rot, foliage application; conditions: cucumber (Sagami-Hanjiro), flowable formulation 500 ppm foliage application, then inoculation; 18° C. high humidity 4 days
Sclerotinia sclerotiorum [2] = test: Preventing infection by cucumber sclerotical disease by soil treatment (irrigation); conditions: cucumber (Sagami-Hanjiro), 1 mg compound per pot by soil irrigation, inoculation after 1 week; 18° C. high humidity 4 days
Fusarium oxysporum = test: Preventing infection by tomato wilt by soil treatment (irrigation); conditions: tomato (Patio) in contaminated soil, 10 mg compound per pot by soil irrigation, 1 month
[3] = tested on: Verticillium albo-atrum, V. dahliae, V. nigrescens; test: Potato blue stem, soil irrigation treatment; conditions: potato (Danshaku) in contaminated soil, 10 mg compound per pot by soil irrigation, 2 months
Gibberella fujikuroi = test: Rice bakanae disease, seed treatment; conditions: contaminated unhulled rice, seed treatment 200 g compound per 100 kg seeds, 1 month
Gaeumannomyces graminis = test: Malt damping off, seed treatment; conditions: contaminated malt seeds, seed treatment 200 g compound per 100 kg seeds, 1 month

Row | Structure (SMILES) | infected areas of treated plants relative to infected areas of untreated plants (Botrytis cinerea) [%] | infected areas of treated plants relative to infected areas of untreated plants (Sclerotinia sclerotiorum [1]) [%] | infected areas of treated plants relative to infected areas of untreated plants (Sclerotinia sclerotiorum [2]) [%] | blotches in treated plants (Fusarium oxysporum) | growth of treated plants (Fusarium oxysporum) | blotches in treated plants [3] | growth of treated plants [3] | growth of treated plants (Gibberella fujikuroi) | growth of treated plants (Gaeumannomyces graminis)
1 | C#Cc1cccc(CNC(=O)c2ccc3ncccc3c2)c1 [Compound 159] | ≤ 10 | ≤ 10 | ≤ 10 | no blotches are found | favorably grow at a level equivalent to that of plants that grow have in noncontaminated soil | no blotches are found | favorably grow at a level equivalent to that of plants that grow in noncontaminated soil | favorably grow at a level equivalent to that of plants that have grown from noncontaminated unhulled rice | favorably grow at a level equivalent to that of plants that grow from noncontaminated seeds
2 | C#Cc1cccc(CNC(=O)c2ccc3ncccc3c2)c1F [Compound 163] | ≤ 10 | ≤ 10 | ≤ 10 | no blotches are found | favorably grow at a level equivalent to that of plants that grow have in noncontaminated soil | no blotches are found | favorably grow at a level equivalent to that of plants that grow in noncontaminated soil | favorably grow at a level equivalent to that of plants that have grown from noncontaminated unhulled rice | favorably grow at a level equivalent to that of plants that grow from noncontaminated seeds
3 | COc1cccc(CNC(=O)c2ccc3ncsc3c2)c1 [Compound 185] | ≤ 10 | ≤ 10 | ≤ 10 | no blotches are found | favorably grow at a level equivalent to that of plants that grow have in noncontaminated soil | no blotches are found | favorably grow at a level equivalent to that of plants that grow in noncontaminated soil | favorably grow at a level equivalent to that of plants that have grown from noncontaminated unhulled rice | favorably grow at a level equivalent to that of plants that grow from noncontaminated seeds
4 | O=C(NCc1ccccc1)c1ccc2ncccc2n1 [Compound 207] | ≤ 10 | ≤ 10 | ≤ 10 | no blotches are found | favorably grow at a level equivalent to that of plants that grow have in noncontaminated soil | no blotches are found | favorably grow at a level equivalent to that of plants that grow in noncontaminated soil | favorably grow at a level equivalent to that of plants that have grown from noncontaminated unhulled rice | favorably grow at a level equivalent to that of plants that grow from noncontaminated seeds
